Library screen at single concentrations

Protein sequences, listed by entry. Tags and fused reporters are not part of them. Residues count along the entry.
UniProt Q8IDJ8, 1-583: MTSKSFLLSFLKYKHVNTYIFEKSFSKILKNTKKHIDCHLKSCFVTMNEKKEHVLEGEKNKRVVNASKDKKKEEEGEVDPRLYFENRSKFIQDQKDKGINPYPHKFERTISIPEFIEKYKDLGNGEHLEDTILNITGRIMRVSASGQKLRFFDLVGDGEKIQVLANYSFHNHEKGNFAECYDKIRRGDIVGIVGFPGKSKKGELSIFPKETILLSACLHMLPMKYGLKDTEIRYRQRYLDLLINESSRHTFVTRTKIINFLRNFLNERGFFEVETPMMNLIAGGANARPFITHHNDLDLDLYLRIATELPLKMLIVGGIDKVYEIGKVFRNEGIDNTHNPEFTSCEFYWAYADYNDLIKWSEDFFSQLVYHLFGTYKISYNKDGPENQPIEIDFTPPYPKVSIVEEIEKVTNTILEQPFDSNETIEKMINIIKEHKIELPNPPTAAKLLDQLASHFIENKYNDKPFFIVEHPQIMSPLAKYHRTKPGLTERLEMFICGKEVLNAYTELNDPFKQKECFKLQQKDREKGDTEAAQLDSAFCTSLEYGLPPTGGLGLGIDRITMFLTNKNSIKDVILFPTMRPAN

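Enzyme assay of the cytosolic lysyl-tRNA synthetase in 384-well plates, read by luminescence. Target: Lysine-tRNA ligase, Plasmodium falciparum 3D7 (UniProt Q8IDJ8). Tested at 30 µM. Higher reads as stronger inhibition, judged from the few compounds that gave an IC50. Size under these conditions: about 69,000 compounds, about 49 of them at 50% or above in at least one test.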

The filed quantity is “Percent Effect” (%). How 0% and 100% were set is not recorded. Most values in the screen are low, and negative values occur. Compounds were drawn at random from those tested, without regard to their results.

| # | compound | effect |
|---|---|---|
| 1 | `COc1cccc(CNCc2ccccc2Cl)c1O` | -0.3876% |
| 2 | `Cc1nc(C2CCCN2CC(=O)NCCc2ccc(Cl)cc2)no1` (stereo not shown) | -0.3164% |
| 3 | `O=C(c1cccnc1N1CCOCC1)N1CCCC1Cn1cccn1` (stereo not shown) | 4.988% |
| 4 | `CN(Cc1nccn1C)C1CCCN(Cc2noc(C3CC3)n2)C1` (stereo not shown) | -2.368% |
| 5 | `CS(=O)(=O)N1CCc2ccc(=O)n(CC3CCOCC3)c2CC1` | 2.336% |
| 6 | `O=C(c1sccc1C1CC1)N1CCN(c2cnccn2)CC1` | 6.047% |
| 7 | `CCCN(CCC)S(=O)(=O)NCCc1cc(C)ccc1OC` | 4.471% |
| 8 | `CC(=O)N1CCN(c2nc3c(cnn3C(C)(C)C)c(=O)[nH]2)CC1` | 3.525% |
| 9 | `CC(=O)N(C)c1nc(CN2CCCC2Cn2cncn2)cs1` (stereo not shown) | 0.5726% |
| 10 | `O=C(NCCCN1CCOCC1)C(OC1CCCC1)c1ccccc1` (stereo not shown) | 1.823% |
| 11 | `COc1cc2[nH]c(=O)c(CN3CCCC(CO)C3)cc2c(OC)c1OC` (stereo not shown) | 5.206% |
| 12 | `O=C(Cc1c(F)cccc1Cl)Nc1cccc(N2CCCC2)c1` | 5.482% |
| 13 | `CCn1c(N)nc2cc(C(=O)NCCNc3ncccc3C)cnc21` | 9.543% |
| 14 | `CN(C)CCOc1cc(NC(=O)COCC(F)(F)F)ccn1` | 6.821% |
| 15 | `Cc1nn(-c2ccccc2)nc1C(=O)N1CCCC(n2cccn2)C1` (stereo not shown) | 0.5298% |
| 16 | `CCCC(=O)N1CCCC(C(=O)c2cnn(-c3ccc(F)cc3)c2N)C1` (stereo not shown) | 0.5264% |
| 17 | `CN(C)[C@H]1C[C@@H](Cc2cc(-c3ccc(F)cc3)on2)C1(C)C` | 8.842% |
| 18 | `c1cnn(CCNCc2csc(-c3ccsc3)n2)c1` | -7.338% |
| 19 | `CN(Cc1nnc(C2CC2)o1)Cc1ccccc1-c1ccccc1` | -1.143% |
| 20 | `COc1ccc(C2=NOC(CC#N)C2)cc1` (stereo not shown) | 3.33% |
| 21 | `CCN(CC)CCCNC(=O)Nc1c(C)cccc1C(C)C` | 7.727% |
| 22 | `O=C(O)C1CCCN1c1nc(C2CC2)cc(C(F)(F)F)n1` (stereo not shown) | 2.383% |
| 23 | `Cc1cccc(CS(=O)(=O)NCc2nn(C)c3c2COCC3)c1` | 1.092% |
| 24 | `Cc1nc2n(n1)CC(NCc1cc(Cl)c3c(c1)OCCO3)CC2` (stereo not shown) | 0.4703% |
| 25 | `O=C(c1ccc(Cl)cc1)N1CCCn2nnc(Cn3cccn3)c2C1` | -0.3223% |
| 26 | `CCOC(=O)C1CN(C(=O)COC)Cc2ncn(CC)c21` (stereo not shown) | 6.274% |
| 27 | `CCc1nnc(NC(=O)CCN2CC=C(c3cnn(C)c3)CC2)s1` | 9.37% |
| 28 | `CC(=O)N1CC[C@H]2OCC[C@@]2(C(=O)NCCc2ccccn2)C1` | 0.2299% |
| 29 | `CCNc1cc2c(nn1)CCN(C(=O)c1cc3ccccc3[nH]c1=O)C2` | 7.709% |
| 30 | `CN(Cc1nc(Cc2cccc(C(F)(F)F)c2)no1)C1CCCCC1` | 3.516% |
| 31 | `COCCC1(CO)CCCN(C(=O)c2ccc(C(C)C)[nH]c2=O)C1` (stereo not shown) | -4.975% |
| 32 | `Cc1cc(C)n(C(=O)c2cn(C)nc2S(=O)(=O)N2CCSCC2)n1` | 7.466% |
| 33 | `COc1ccc(Cl)cc1CCNC(=O)NCc1ccncc1` | 1.766% |
| 34 | `Cc1nccn1CCC1CCN(C(=O)C2CC3(CCNCC3)CN2)CC1` (stereo not shown) | 1.397% |
| 35 | `CN(c1ccncn1)C1CC2(CCN(C(=O)c3cccs3)C2)C1` (stereo not shown) | 1.516% |
| 36 | `CN1CCC(c2nc3ccc(-c4cccc(F)c4)cn3n2)CC1` | 2.199% |
| 37 | `CN1CCCN(C(=O)c2ccn3ccnc3c2)CC1` | 3.53% |
| 38 | `O=C(Cc1ccc2c(c1)CCCC2)N[C@@H]1CC[C@@H](n2ccnc2)[C@@H]1O` | 3.864% |
| 39 | `CN(C)CC(=O)N1CC2(CCN(C(=O)Nc3ccccc3)C2)C1` | 1.862% |
| 40 | `CCc1n[nH]c(C2CN(Cc3csc(COC)n3)CCO2)n1` (stereo not shown) | 1.043% |
| 41 | `CCCS(=O)(=O)N1Cc2nccn2CC(Cn2cccn2)C1` (stereo not shown) | 6.198% |
| 42 | `CCc1cccc2cc(CNCCCN3CCOCC3)c(=O)[nH]c12` | 5.229% |
| 43 | `Cc1noc([C@H]2COC[C@H]3CN(C(=O)Cc4ccc(F)cc4)C[C@H]32)n1` | 2.637% |
| 44 | `Cc1ncc(-c2ccnc(N3CCCCCC3)n2)c(-c2cccnc2)n1` | 7.405% |
| 45 | `CCn1cnnc1C1CCN(C(=O)c2ccccc2F)CC1` | -0.2088% |
| 46 | `CC(C)N1CCO[C@H]2CN(C(=O)c3ccccn3)C[C@H]21` | 1.114% |
| 47 | `Cc1ccc(CNC[C@H]2Cn3cc(-c4ccccc4)nc3CO2)cc1` | 2.875% |
| 48 | `COc1ccc(Oc2ncccc2NC(=O)N2CCOCC2C)cc1` (stereo not shown) | 8.903% |
| 49 | `CNS(=O)(=O)c1ccc(CNC(=O)NCC2CCCO2)cc1` (stereo not shown) | -5.603% |
| 50 | `CN(C)[C@@H]1CCN(C(=O)Cc2cccs2)[C@H]1Cc1ccncc1` | -3.605% |
| 51 | `Cn1nc(C2CC2)cc1C(=O)N1CCC(c2nnsc2S(C)(=O)=O)CC1` | -1.75% |
| 52 | `Cc1nc(C)n(CC2CCCCN2CCOc2ccc(C#N)cc2)n1` (stereo not shown) | 0.7103% |
| 53 | `CC(C)C[C@H](N)C(=O)N1CC2(CCNCC2)c2cc(Cl)ccc21` | 2.541% |
| 54 | `Cc1cnc(CN2CCN(c3nc(C)cs3)C(C)C2)cn1` (stereo not shown) | 3.895% |
| 55 | `OC1(CN2CCCC(Cn3cncn3)C2)CCCCC1` (stereo not shown) | -1.184% |
| 56 | `Cc1ccc2c(n1)N(Cc1cccnc1)CCN(C(=O)C1CC1)C2` | 4.539% |
| 57 | `Cc1cc(C[C@@H]2CCC[C@H]2NCc2c[nH]nc2-c2ccccc2)on1` | 1.265% |
| 58 | `CCc1ccc(C2COCCN2C(=O)NCc2cccc(C#N)c2)o1` (stereo not shown) | 5.466% |
| 59 | `COC(=O)c1ncccc1N1CCCC1` | 7.367% |
| 60 | `Cc1ccc(C(C)NC(=O)Cc2c(C)nc3c(c2C)c(=O)[nH]n3C)o1` (stereo not shown) | 4.815% |
| 61 | `CC(=O)N1CCN(Cc2nccs2)CC2(CC(=O)N(C)C2)C1` (stereo not shown) | -1.276% |
| 62 | `CCC(=O)N1CCC2(CC1)CN(CCO)Cc1ccccc12` | -0.4482% |
| 63 | `CCN(Cc1cccc(NC(=O)COC)c1)C(C)=O` | 3.376% |
| 64 | `CNC(=O)c1nc(CN2CCOC(C(F)(F)F)C2)no1` (stereo not shown) | -2.219% |
| 65 | `Cc1cccc(N2CCC(N3CCCC4(CN(C)C(=O)O4)C3)CC2)c1C` (stereo not shown) | 8.196% |
| 66 | `Cc1csc(N2CCN(C(=O)CCc3ccccn3)CC2)n1` | 1.878% |
| 67 | `Cc1ccc(-c2snnc2C(=O)NCCCO)cc1` | 1.019% |
| 68 | `COc1ccc(C(=O)NCC(c2cccn2C)N2CCCC2)c(OC)c1` (stereo not shown) | 2.33% |
| 69 | `COCCn1ccnc1CN(Cc1ccccn1)Cc1sccc1C` | 1.179% |
| 70 | `OC1CCCN(Cc2cn(CC3CCN(C4CCSCC4)CC3)nn2)C1` (stereo not shown) | -1.68% |
| 71 | `CC(=O)Nc1ccc(C(=O)N(C)Cc2ccc(F)cc2F)s1` | 4.919% |
| 72 | `COCCN(C(=O)c1cnccn1)c1nc2c(s1)CCc1c-2cnn1C` | 8.733% |
| 73 | `Cc1ccc(CN2CCN(C3CCCC3)CC2CCO)o1` (stereo not shown) | -2.369% |
| 74 | `Cc1nc(CN2CCCC2Cn2cccn2)nc2ccccc12` (stereo not shown) | -0.4955% |
| 75 | `O=C(O)[C@@H]1CCN(C(=O)c2cscn2)[C@@H]1c1ccc(F)cc1` | 4.533% |
| 76 | `Nc1cc(N2CCCC(Cc3ccc(F)cc3F)(C(=O)O)C2)ncn1` (stereo not shown) | 1.124% |
| 77 | `COCc1cc(N2CCN(C3CCCCC3)CC2)n2nccc2n1` | 1.357% |
| 78 | `CN1CCN(CC2CC2)C(=O)C12CCN(C(=O)c1cnccn1)CC2` | 1.749% |
| 79 | `CSc1ccc(C)c(C(=O)Nc2c(C(N)=O)n[nH]c2C)c1` | 1.029% |
| 80 | `Cc1ccccc1CS(=O)(=O)CC(=O)N(C)Cc1ccccc1F` | 5.74% |
| 81 | `Cc1ccc(-c2ccc(=O)n(CC(=O)Nc3nccs3)n2)cc1` | 4.074% |
| 82 | `COc1cccc(N2CCN(Cc3cccc(CCN)c3)CC2=O)c1` | 3.454% |
| 83 | `Cn1nccc1CNC(=O)Cn1nc(C(F)(F)F)cc1C1CC1` | 4.29% |
| 84 | `CCc1cc(N[C@@H]2C[C@H]3CC[C@@H]2C3)n2nccc2n1` | 2.761% |
| 85 | `Fc1cccc2ncnc(NCCCc3ccncc3)c12` | 5.716% |
| 86 | `C[C@@H]1CN2C[C@H](O)CC2CN1Cc1ccc2nccnc2c1` (stereo partly shown) | 0.7991% |
| 87 | `CC(C)Oc1cc(N2CCCC(O)C2)nc(N)n1` (stereo not shown) | -2.136% |

Repeated from the top, 11 entries:

| compound | effect |
|---|---|
| `COc1cccc(CNCc2ccccc2Cl)c1O` | -0.3876% |
| `Cc1nc(C2CCCN2CC(=O)NCCc2ccc(Cl)cc2)no1` (stereo not shown) | -0.3164% |
| `O=C(c1cccnc1N1CCOCC1)N1CCCC1Cn1cccn1` (stereo not shown) | 4.988% |
| `CN(Cc1nccn1C)C1CCCN(Cc2noc(C3CC3)n2)C1` (stereo not shown) | -2.368% |
| `CS(=O)(=O)N1CCc2ccc(=O)n(CC3CCOCC3)c2CC1` | 2.336% |
| `O=C(c1sccc1C1CC1)N1CCN(c2cnccn2)CC1` | 6.047% |
| `CCCN(CCC)S(=O)(=O)NCCc1cc(C)ccc1OC` | 4.471% |
| `CC(=O)N1CCN(c2nc3c(cnn3C(C)(C)C)c(=O)[nH]2)CC1` | 3.525% |
| `CC(=O)N(C)c1nc(CN2CCCC2Cn2cncn2)cs1` (stereo not shown) | 0.5726% |
| `O=C(NCCCN1CCOCC1)C(OC1CCCC1)c1ccccc1` (stereo not shown) | 1.823% |
| `COc1cc2[nH]c(=O)c(CN3CCCC(CO)C3)cc2c(OC)c1OC` (stereo not shown) | 5.206% |

Source: ChEMBL document CHEMBL3988442, “University of Dundee, Small-Polar-MMV Screening Library” (2021).